Results are given in words; binding and its absence hold for the method and conditions named. Some results given as binding are weak or reduced against the parent protein; the word gives no strength.
B1: human BMP-9 (ligand, UniProt Q9UK05 320-429, looked up)
chain: SAGAGSHCQKTSLRVNFEDIGWDSWIIAPKEYEAYECKGGCFFPLADDVTPTKHAIVQTLVHLKFPTKVGKACCVPTKLSPISVLYKDDMGVPTLKYHYEGMSVAECGCR
notes: also called hBMP-9
B2: human BMP-10 (ligand, UniProt O95393 317-424, looked up)
chain: NAKGNYCKRTPLYIDFKEIGWDSWIIAPPGYEAYECRGVCNYPLAEHLTPTKHAIIQALVHLKNSQKASKACCVPTKLEPISILYLDKGVVTYKFKYEGMAVSECGCR
notes: also called hBMP-10
B3: mENG(27-581)-hFc (R&D Systems, catalog #1320-EN) (Fc fusion, not shown: a dimerising Fc or GST)
chain: ERVGCDLQPVDPTRGEVTFTTSQVSEGCVAQAANAVREVHVLFLDFPGMLSHLELTLQASKQNGTETREVFLVLVSNKNVFVKFQAPEIPLHLAYDSSLVIFQGQPRVNITVLPSLTSRKQILDWAATKGAITSIAALDDPQSIVLQLGQDPKAPFLCLPEAHKDMGATLEWQPRAQTPVQSCRLEGVSGHKEAYILRILPGSEAGPRTVTVMMELSCTSGDAILILHGPPYVSWFIDINHSMQILTTGEYSVKIFPGSKVKGVELPDTPQGLIAEARKLNASIVTSFVELPLVSNVSLRASSCGGVFQTTPAPVVTTPPKDTCSPVLLMSLIQPKCGNQVMTLALNKKHVQTLQCTITGLTFWDSSCQAEDTDDHLVLSSAYSSCGMKVTAHVVSNEVIISFPSGSPPLRKKVQCIDMDSLSFQLGLYLSPHFLQASNTIELGQQAFVQVSVSPLTSEVTVQLDSCHLDLGPEGDMVELIQSRTAKGSCVTLLSPSPEGDPRFSFLLRVYMVPTPTAGTLSCNLALRPSTLSQEVYKTVSMRLNVVSPDLSGKGIEGRMD

By UniProt entry, the sequences of proteins in these tests, tags left out. Residues count along the entry.
UniProt P37023, residues 22-118: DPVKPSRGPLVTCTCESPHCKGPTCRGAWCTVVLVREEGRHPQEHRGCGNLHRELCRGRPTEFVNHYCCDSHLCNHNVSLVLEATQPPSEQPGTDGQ

Tests used:
ALK1-hFc (human) [1] = molecular target: ALK1-hFc (human) (UniProt P37023); assay: SPR, ALK1-hFc captured, 10 nM BMP-9 without hENG(26-586)
ALK1-hFc (human) [2] = molecular target: ALK1-hFc (human) (UniProt P37023); assay: SPR, ALK1-hFc captured, 10 nM BMP-10 without hENG(26-586)
human BMP-9 = molecular target: B1; assay: SPR (Biacore), captured construct, ligand at 0.5 nM; ++++ = KD<1 nM
human BMP-10 = molecular target: B2; assay: as above

## B1
ALK1-hFc (human) [1]
  binding: binds

## B2
ALK1-hFc (human) [2]
  binding: binds

## B3
Human BMP-9
  binding: binds
Human BMP-10
  binding: binds
